Results published in article PMC3843111.
These are yes or no findings as the source states them, for the method shown. In cells and extracts the contact can be indirect. A result given as binding can be weak or reduced; the word gives no strength.

By UniProt entry, the sequences of proteins in these tests, tags left out. Where a name states a change or a piece, a line headed by the entry shows the natural chain unless it says otherwise.
UniProt Q8CHK4: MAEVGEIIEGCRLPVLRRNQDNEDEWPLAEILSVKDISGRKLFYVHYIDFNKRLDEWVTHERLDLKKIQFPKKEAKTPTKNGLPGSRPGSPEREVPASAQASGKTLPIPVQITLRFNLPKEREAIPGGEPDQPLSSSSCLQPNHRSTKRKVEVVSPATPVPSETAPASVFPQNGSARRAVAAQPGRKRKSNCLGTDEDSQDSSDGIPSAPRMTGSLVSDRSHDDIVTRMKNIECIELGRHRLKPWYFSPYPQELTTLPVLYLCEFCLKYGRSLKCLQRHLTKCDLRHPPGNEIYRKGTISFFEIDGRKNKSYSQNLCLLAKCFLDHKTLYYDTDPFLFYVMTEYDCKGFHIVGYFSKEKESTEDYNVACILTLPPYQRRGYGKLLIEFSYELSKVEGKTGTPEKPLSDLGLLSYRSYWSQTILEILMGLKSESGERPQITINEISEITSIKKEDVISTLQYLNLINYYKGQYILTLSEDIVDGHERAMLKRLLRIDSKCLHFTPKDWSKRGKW
UniProt Q9Z2V5: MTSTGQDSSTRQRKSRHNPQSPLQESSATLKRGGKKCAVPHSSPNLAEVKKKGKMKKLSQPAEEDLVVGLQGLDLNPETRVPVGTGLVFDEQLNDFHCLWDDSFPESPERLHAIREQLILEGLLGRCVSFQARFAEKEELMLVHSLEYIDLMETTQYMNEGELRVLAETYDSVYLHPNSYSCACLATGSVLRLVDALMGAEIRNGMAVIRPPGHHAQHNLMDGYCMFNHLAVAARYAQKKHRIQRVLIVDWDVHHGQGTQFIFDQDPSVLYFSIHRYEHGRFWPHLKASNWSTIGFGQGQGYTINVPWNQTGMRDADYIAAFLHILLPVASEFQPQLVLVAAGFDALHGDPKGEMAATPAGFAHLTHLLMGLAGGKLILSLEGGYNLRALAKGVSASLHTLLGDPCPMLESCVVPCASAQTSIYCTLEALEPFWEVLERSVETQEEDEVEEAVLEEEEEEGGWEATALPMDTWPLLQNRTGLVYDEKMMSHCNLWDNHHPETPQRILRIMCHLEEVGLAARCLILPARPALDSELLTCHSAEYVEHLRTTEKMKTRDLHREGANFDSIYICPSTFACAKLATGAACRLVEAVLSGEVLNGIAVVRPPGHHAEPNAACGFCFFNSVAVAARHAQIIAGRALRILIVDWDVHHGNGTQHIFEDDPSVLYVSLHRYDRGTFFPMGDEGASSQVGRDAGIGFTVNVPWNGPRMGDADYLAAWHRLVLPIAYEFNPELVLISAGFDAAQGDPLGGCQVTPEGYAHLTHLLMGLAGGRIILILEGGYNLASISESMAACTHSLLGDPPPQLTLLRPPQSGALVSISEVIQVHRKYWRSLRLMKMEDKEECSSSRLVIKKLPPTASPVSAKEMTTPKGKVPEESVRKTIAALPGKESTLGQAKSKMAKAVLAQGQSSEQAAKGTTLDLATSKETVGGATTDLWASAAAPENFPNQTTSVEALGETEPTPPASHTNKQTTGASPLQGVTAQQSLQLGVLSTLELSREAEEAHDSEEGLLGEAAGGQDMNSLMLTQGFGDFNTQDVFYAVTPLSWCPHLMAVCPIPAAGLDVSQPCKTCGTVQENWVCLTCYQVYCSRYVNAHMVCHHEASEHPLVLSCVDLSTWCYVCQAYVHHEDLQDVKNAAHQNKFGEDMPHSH

Target: Tip60-H3F (Tip60 with a C-terminal 6-histidine-3-FLAG tag, from the endogenous gene) in ESCs (mouse (endogenous in ESCs)) (UniProt Q8CHK4)
Assay: co-IP; Tip60-H3F immunoprecipitated with anti-FLAG (FLAG-M2 Agarose) from nuclear extracts (ESCs; NSCs), Western blot; IP buffer 50 mM Tris-HCl pH7.4, 250 mM NaCl, 0.1% Triton X-100, overnight at 4°C; also with DNase I or ethidium bromide, with high-salt washes, and with five additional washes with or without 10 uM tubastatin A

Substance: HA-tagged Hdac6 deacetylase domain 1 (HD1) mutant (from UniProt Q9Z2V5)
- binding: binds
